The assay is described as follows: qHTS Assay to Find Inhibitors of Chronic Active B-Cell Receptor Signaling. The note with it: ABC-DLBCL IkBa-CBG/CBR reporter, luminescence ratio (green luciferase fused to IkBa over red control in TMD8 lymphoma cells), 4 h. In outline: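 Compounds up to 46 uM were incubated four hours with TMD8 cells whose green CBG68 luciferase is fused to IkappaBalpha; red CBR luminescence normalised the signal, and concentration-effect curves were fitted to fusion, red and ratio data.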

[1] abbreviates: measured here: CBR red luminescence, cell number.
Where [2] appears, read: measured here: IkBa-CBG green luminescence.

From PubChem BioAssay AID493014 (National Center for Advancing Translational Sciences (NCATS), 2011) come the findings set out here.

Where “and” joins values, the source holds several entries; their conditions need not be identical. Equal entries are not always repeated. Some of the results follow. These are further read-outs of the screen, such as a control signal, another cell line or another target. No call is given for them. Compounds called inactive in the main read-out are mostly missing here. Potencies come from curve fits of mixed quality, noted in brackets.

With `O=C(Nc1nc2ccsc2c(=O)s1)c1ccco1`, the AC50 under setting [1] is 7.08 µM [falling, partial curve].
As to `O=C(CCN1C(=O)S/C(=C\c2ccccc2)C1=O)NC1CCS(=O)(=O)C1` (stereo not drawn), the AC50 under setting [1] was 35.5 µM [falling, single point].
Consider `COc1ccc(/C=C2\SC(=Nc3ccccc3OC)NC2=O)cc1`, for which the AC50 under setting [1] is 1.26 µM [falling, full curve].
Regarding `CCOC(=O)c1ccc(NC(=O)c2c(O)c3ccccc3n(C)c2=O)cc1`, the AC50 under setting [1] was 0.355 µM [falling, full curve, poor fit].
Turning to `CCOC(=O)c1ccc(Nc2cc(C)nc(-c3ccccc3O)n2)cc1`, the AC50 under setting [1] is 0.731 µM [falling, partial curve].
For the compound `CCCCC(=O)Nc1ccc(C(=O)N2CCN(c3ccccc3OC)CC2)cc1`, the AC50 by setting is: under setting [1], 0.291 µM [rising, partial curve, poor fit]; under setting [2], 3.66 µM [falling, partial curve, poor fit].
`CN(N=Nc1cccc([N+](=O)[O-])c1)c1ccccc1`: the AC50 under setting [1] is 20 µM [rising, partial curve, poor fit].
Regarding `COCCNC(=O)c1cn(C)c2ccccc2c1=O`, under setting [1], the AC50 is 0.631 µM [rising, full curve, poor fit].
Take `CNC(=O)c1ccc(Nc2nc(-c3ccccc3)nc3ccccc23)cc1`: the AC50 under setting [1] is 8.91 µM [falling, partial curve].
On to `Cc1nnc(SC(C)C(=O)N2CCc3ccccc32)s1` (stereo not drawn), for which the AC50 under setting [1] was 6.51 µM [rising, single point] and the AC50 under setting [2] was 5.8 µM [falling, partial curve, poor fit].
Consider `COc1ccc(S(=O)(=O)N2CCN(C(=O)c3cc(C)oc3C)CC2)cc1OC`, for which, under setting [1], the AC50 is 2.59 µM [rising, partial curve, poor fit].
Consider `O=C(c1ccc2ccccc2c1)N1CCN(Cc2ccccc2)CC1`, for which the AC50 under setting [1] is 35.5 µM [falling, single point].
On the same count and under the same terms, to `CCCCCCCNC(=O)C1(CC2CC(c3ccccc3)=NO2)CCN(C(=O)c2ccccc2)CC1` (stereo not drawn) belongs 0.82 µM [rising, full curve, poor fit].
On the same count and under the same terms, to `Cc1ccc(/C(N)=N/OC(=O)c2ccc(C)cc2Cl)cc1` belongs 0.517 µM [rising, full curve, poor fit]; to `Fc1ccc(-c2nc(-c3cccs3)[nH]c2-c2ccc(F)cc2)cc1`, 18.4 µM [falling, partial curve]; to `O=C(NC1CCCCC1)c1noc2c1CCCCC2`, 10.3 µM [falling, partial curve].
For the compound `O=C(Nc1ncc(S(=O)(=O)c2ccc([N+](=O)[O-])cc2)s1)c1cccnc1`, under setting [1], the AC50 was 35.5 µM [rising, single point].
Same read-out and setting: with `O=C(CSc1ncnc2c1cnn2-c1ccccc1)Nc1ccc2c(c1)OCO2` the figure was 11.2 µM [falling, partial curve, poor fit]; with `Cn1nc(C(=O)NNC(=O)c2ccccc2Br)c2ccccc2c1=O`, 11.6 µM [falling, partial curve]; with `Cc1cc(=O)c(C(=O)O)cn1-c1ccc(C(C)C)cc1`, 7.08 µM [rising, partial curve, poor fit].
On to `Cc1ccc(OCc2cc(C(=O)N3CCN(CC(=O)NC(C)C)CC3)no2)cn1`, for which the AC50 under setting [1] is 3.16 µM [falling, single point].
Consider `O=C(Nc1ccc(OC(F)(F)F)cc1)N1CCN(c2ccnc3cc(Cl)ccc23)CC1`, for which, under setting [1], the AC50 is 0.891 µM [falling, full curve, poor fit].
On to `CCCCN(CCCC)C(=O)c1c[nH]c2ccc(S(=O)(=O)Nc3cccc(Cl)c3C)cc2c1=O`, for which the concentration at half-maximal activity (AC50) runs as follows: under setting [1], 20.6 µM [falling, single point]; under setting [2], 18.4 µM [rising, partial curve, poor fit].
On to `Cc1ccc(C(=O)Nc2cnc3ccccn3c2=O)cc1`, for which the AC50 under setting [1] is 9.2 µM [falling, partial curve] and 15.8 µM [falling, single point].
Consider `CCOC(=O)C1=C(N)Oc2cc(O)ccc2C1c1cccc([N+](=O)[O-])c1` (stereo not drawn), for which the AC50 under setting [1] is 25.1 µM [falling, single point].
Same read-out and setting: to `Cc1cc(OCCCCN2C(=O)NC(C)(C)C2=O)ccc1[N+](=O)[O-]` belongs 1.12 µM [falling, full curve, poor fit].
On to `Cn1cc(SCC(N)=O)c2ccccc21`, for which the AC50 under setting [1] is 25.9 µM [rising, single point].
Turning to `Cn1c(C(=O)N2CCN(c3ncccn3)CC2)cc2c(=O)n(C)c3ccccc3c21`, the AC50 under setting [1] is 32.6 µM [falling, partial curve, poor fit].
`CN(CC(=O)Nc1ccc(Cl)cc1)CC(=O)Nc1cccc(Br)c1`: the AC50 under setting [1] is 17.8 µM [falling, single point].
For the compound `CC(=O)N1CCN(CC(=O)Nc2ccc([N+](=O)[O-])cc2Br)CC1`, the half-maximal activity concentration (AC50) under setting [1] is 35.5 µM [rising, single point].
Turning to `Cc1ccc(-c2cc(C(=O)OCn3nnc4ccccc4c3=O)c3ccccc3n2)cc1`, the concentration at half-maximal activity (AC50) under setting [1] was 2.31 µM [rising, partial curve, poor fit].
On to `N#Cc1cc(C(=O)c2cc(Cl)ccc2O)cn(CC2CCCO2)c1=O` (stereo not drawn), for which the AC50 under setting [1] is 6.31 µM [rising, single point].
As for `CCc1nnc2sc(-c3cc(-c4ccccc4)nc4ccccc34)nn12`, the AC50 under setting [1] is 16.4 µM [falling, single point].
As to `O=C(c1ccc(S(=O)(=O)c2ccc(F)cc2)c([N+](=O)[O-])c1)N1CCCCCC1`, under setting [1], the AC50 is 32.6 µM [falling, partial curve, poor fit].
As for `O=c1c2ccccc2cnn1-c1nc2ccccc2[nH]1`, the AC50 under setting [1] is 0.708 µM [falling, full curve].
For the compound `COCCn1c(SCC(=O)Nc2ccccc2F)nc2c(c1=O)SCC2`, the AC50 under setting [1] was 35.5 µM [falling, single point].
For `COC(=O)c1cc(C(=O)OC)[nH]n1`, the AC50 under setting [1] was 3.55 µM [falling, single point].
`CCOc1ccc(CO[C@@H]2O[C@H](CO)[C@@H](O)[C@H](O)[C@H]2NC(C)=O)cc1OC`: the AC50 under setting [1] was 20 µM [rising, single point].
For the compound `CN1CCS/C1=C/C=C1/SC(=S)N(Cc2ccccc2)C1=O`, the AC50 under setting [1] was 23.1 µM [rising, single point].
`CC(C)Cn1cnc2sc3c(c2c1=N)CCCC3`: the AC50 under setting [1] is 1.84 µM [falling, partial curve, poor fit].
With `Cc1nc2ccc(NC(=O)COc3ccccc3F)cc2s1`, the AC50 under setting [1] is 35.5 µM [falling, single point].
For the compound `COc1ccc(S(=O)(=O)N(CC(=O)Nc2ccc(Br)cc2)Cc2ccccc2)cc1`, the AC50 under setting [1] was 2.51 µM [rising, partial curve].
Consider `CCOC(=O)c1c(C)[nH]c(-c2csc(C)n2)c1C`, for which the AC50 under setting [1] is 7.08 µM [rising, partial curve, poor fit].
Turning to `CNC(C)C(=O)NC(C(=O)N1CCCC1C(=O)NC1CCCc2ccccc21)C(C)C` (stereo not drawn), the half-maximal activity concentration (AC50) under setting [1] is 6.51 µM [rising, partial curve].
For `CN(C)c1ccc(CNCCC(Cc2ccccc2)c2ccco2)cc1` (stereo not drawn), under setting [1], the AC50 is 10 µM [falling, partial curve, poor fit].
Consider `Cc1ccc2nc(SCC(=O)NCc3ccc(F)cc3)nc(=O)n2c1`, for which the half-maximal activity concentration (AC50) under setting [1] is 6.51 µM [rising, single point].
Turning to `N#C/C(N)=C(/C#N)N=Cc1cccc(Cl)c1`, the AC50 under setting [1] was 22.4 µM [falling, single point].
Still for that read-out and setting: to `COc1ccc(C2c3ccc4ccccc4c3Oc3ncn(CCO)c(=N)c32)cc1OC` (stereo not drawn) belongs 35.5 µM [falling, single point]; to `O=C(Nc1nccs1)C1CCN(S(=O)(=O)c2cnc[nH]2)CC1`, 29.1 µM [falling, single point].
On the same count and under the same terms, to `O=C(Nc1cccc(Br)c1)c1cc(=O)c2ccccc2o1` belongs 1.58 µM [rising, partial curve, poor fit]; to `CCOC(=O)c1sc(NC(=O)CC(C)c2ccccc2)nc1C` (stereo not drawn), 1.12 µM [falling, partial curve].
Take `CNC(=S)N/N=C(\C)c1ccccc1`: under setting [2], the AC50 was 35.5 µM [falling, single point].
As to `O=C(NCCN1C(=O)S/C(=C/c2ccccc2)C1=O)C1CC(=O)N(Cc2ccccc2)C1` (stereo not drawn), the AC50 under setting [1] is 10.3 µM [falling, partial curve].
The same measure, in the same setting: with `CCOc1cc(C(=O)NC(=S)Nn2cnnc2)cc(OCC)c1OCC` the figure was 7.08 µM [falling, full curve, poor fit]; with `CCOc1ccc2nc(NC3=NC(C)(C)C=C(C)N3)nc(C)c2c1`, 29.1 µM [falling, single point].
On the same count and under the same terms, with `Cc1ccsc1C1CC(=O)Nc2ccccc2S1` (stereo not drawn) the figure was 15.8 µM [falling, single point]; with `COC(=O)C1CCN(C(=O)COc2ccc(Cl)cc2)CC1`, 9.2 µM [falling, partial curve].
Turning to `NCC12CC3CC(C1)CC(c1ccc(Br)cc1)(C3)C2`, the AC50 under setting [1] was 35.5 µM [falling, single point].
With `CCOCC(=O)Nc1nc2ccc(C)cc2s1`, under setting [1], the AC50 was 14.6 µM [falling, partial curve].
Take `O=c1c2ccccc2nc(/C=C/c2ccc(Br)cc2)n1CCCO`: the half-maximal activity concentration (AC50) under setting [1] was 2 µM [rising, partial curve, poor fit].
For the compound `CCc1ccc(OCC(=O)NC(=S)Nc2ccc(C)cc2C)c(Br)c1`, the concentration at half-maximal activity (AC50) under setting [1] is 6.31 µM [rising, full curve].
Same read-out and setting: to `COC(=O)CSc1ccc(C#N)c(SCC(=O)OC)c1` belongs 17.8 µM [falling, single point]; to `Cc1ccc(OCCNc2ccc(C(F)(F)F)cc2[N+](=O)[O-])cc1`, 11.6 µM [rising, partial curve]; to `CC(=O)c1ccc2c3c(ccc(O)c13)CC2`, 11.2 µM [rising, partial curve, poor fit].
Turning to `CC(C)Cn1c(N)c(C(=O)NCCN2CCOCC2)c2nc3ccccc3nc21`, under setting [1], the AC50 was 6.51 µM [falling, partial curve, poor fit].
